Patent publication US20040244069A1
These are yes or no findings as the source states them, for the method shown. Some results given as binding are weak or reduced against the parent protein; the word gives no strength.

Legend:
[1] = biological target: T1, ligand binding domain of LRP5 (human) (UniProt O75197); test: yeast two hybrid screen with the LRP5 ligand binding domain
T1 sequence: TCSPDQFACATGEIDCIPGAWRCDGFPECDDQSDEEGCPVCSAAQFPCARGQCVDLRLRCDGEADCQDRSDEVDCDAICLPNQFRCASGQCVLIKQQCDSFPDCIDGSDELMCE

[2] = biological target: T1, ligand binding domain of LRP5 (human); test: yeast two hybrid

B1: dickkopf-1 (Dkk-1) (ligand, UniProt O94907 32-266, looked up)
chain: TLNSVLNSNAIKNLPPPLGGAAGHPGSAVSAAPGILYPGGNKYQTIDNYQPYPCAEDEECGTDEYCASPTRGGDAGVQICLACRKRRKRCMRHAMCCPGNYCKNGICVSSDQNHFRGEIEETITESFGNDHSTLDGYSRRTTLSSKMYHTKGQEGSVCLRSSDCASGLCCARHFWSKICKPVLKEGQVCTKHRRKGSHGLEIFQRCYCGEGLSCRIQKDHHQASNSSRLHTCQRH
binding [1]: binds | binding [2]: binds
